{"source": "paper PMC9794587", "about": "(Frontiers in Pharmacology, 2022)", "assay": "peptide synthesis", "settings": "whole synthesis", "note": "Strings that start with PEPTIDE1 are HELM notation: dots part the residues, brackets hold end groups and non-standard residues."}
{"substance": "PEPTIDE1{G.E.P.P.P.G.K.P.A.D.D.A.G.L.V}$$$$V2.0", "values": [{"measurement": "final purity (method not given)", "value": 99, "unit": "%"}]}
